At least one compound was matched to its structure with a doubt left.
What was measured:
PSMA = PSMA (Homo sapiens, UniProt Q04609); test: Enzyme assay with PSMA (Example 2), fluorescence spectrum and Michaelis-Menten plot; format: biochemical; conditions: apparent dynamic parameter with PSMA, Table 2
Procedure: A change in the fluorescence spectrum due to the enzymatic reaction was measured as follows. The reactivity of 6-fluAFGlu to PSMA was evaluated by creating a Michaelis-Menten plot. • (1) Two solutions prepared by dissolving 10 μM probe in 200 μL of each assay buffer were provided. • (Assay buffer: 50 mM HEPES, 100 mM NaCl, pH 7.5) • (2) 0.44 μg of PSMA was added to each and incubated at 37° C. for 15 hours. For one of the solutions, a PSMA specific inhibitor 2-(Phosphonomethyl)-pentandioic acid (2-PMPA) (final concentration 10 μM) was also added at the same time and incubated at 37° C. for 15 hours. • (3) Each solution after the incubation in (2) was diluted to 2800 μL with 200 mM Na-Pi buffer, and the fluorescence spectrum was measured.
FIG. 1 illustrates the fluorescence spectrum of 5-fluAFGlu and 6-fluAFGlu after addition of PSMA and an inhibitor (2-PMPA, 10 μM) (S/N to 417 at 516 nm).

By UniProt entry, the sequences of proteins in these tests, tags left out.
UniProt Q04609, whole entry: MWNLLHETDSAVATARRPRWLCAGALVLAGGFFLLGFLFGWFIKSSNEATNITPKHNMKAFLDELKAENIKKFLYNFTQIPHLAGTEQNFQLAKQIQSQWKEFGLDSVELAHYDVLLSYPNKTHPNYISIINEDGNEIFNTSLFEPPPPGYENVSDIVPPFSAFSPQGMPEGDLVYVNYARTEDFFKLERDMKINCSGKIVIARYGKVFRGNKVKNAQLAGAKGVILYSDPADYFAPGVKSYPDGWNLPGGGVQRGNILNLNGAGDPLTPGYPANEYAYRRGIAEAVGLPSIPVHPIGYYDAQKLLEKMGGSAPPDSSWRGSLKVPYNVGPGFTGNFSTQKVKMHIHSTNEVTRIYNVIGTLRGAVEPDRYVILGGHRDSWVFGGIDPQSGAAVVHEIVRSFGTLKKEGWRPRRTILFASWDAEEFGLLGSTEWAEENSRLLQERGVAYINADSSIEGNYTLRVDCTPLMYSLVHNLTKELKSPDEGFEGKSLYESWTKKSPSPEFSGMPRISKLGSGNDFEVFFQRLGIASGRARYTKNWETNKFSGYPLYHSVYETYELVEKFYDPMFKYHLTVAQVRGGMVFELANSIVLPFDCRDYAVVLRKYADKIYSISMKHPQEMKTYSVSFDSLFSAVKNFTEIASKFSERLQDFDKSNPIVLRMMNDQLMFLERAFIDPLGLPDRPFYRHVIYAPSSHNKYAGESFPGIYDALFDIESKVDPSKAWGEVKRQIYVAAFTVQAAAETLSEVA

[1] = Absorption/fluorescence spectrum measurement; format: physicochemical
Procedure: The absorption spectrum was measured using UV-2450 (SIMADZU), and the fluorescence spectrum was measured using F-7000 (HITACHI).
FIG. 9 and FIG. 10 illustrate the results of the absorption/fluorescence spectrum measurement of 2Me5GluAF-TG (Compound 32). […] The absorption spectrum was measured using UV-2450 (SIMADZU), and the fluorescence spectrum was measured using F-7000 (HITACHI).

[2] = fluorescein reference, footnote l not given

| Structure (SMILES) | kcat/Km (PSMA) | Fluorescence under physiological conditions ([1]; as compared to fluorescein) | Absorption maximum (nm) [1, 2] | Fluorescence maximum (nm) [1, 2] | Quantum yield [1, 2] |
| --- | --- | --- | --- | --- | --- |
| O=C(O)CCC(NC(=O)N=Nc1ccc(C(=O)O)c(-c2c3ccc(=O)cc-3oc3cc(O)ccc23)c1)C(=O)O (centres unmarked) [Compound 6-fluAFGlu] | 230 M⁻¹ s⁻¹ | – | – | – | – |
| O=C1OC2(c3ccc(O)cc3Oc3cc(O)ccc32)c2ccccc21 [Fluorescein, reference compound] | – | highly fluorescent | 489 nm | 516 nm | 0.85 |
